Construct, isoform or probe ends are uncertain for at least one entry. The comparison behind a weaker result is the experiment's own reference, which may not be listed here. Tags and fusion partners may be left off the protein sequences shown.
Molecular target: T1, YggS (E. coli PLP-BP), wild type (Escherichia coli) (UniProt P67080)
T1 sequence (looked up, limits assumed): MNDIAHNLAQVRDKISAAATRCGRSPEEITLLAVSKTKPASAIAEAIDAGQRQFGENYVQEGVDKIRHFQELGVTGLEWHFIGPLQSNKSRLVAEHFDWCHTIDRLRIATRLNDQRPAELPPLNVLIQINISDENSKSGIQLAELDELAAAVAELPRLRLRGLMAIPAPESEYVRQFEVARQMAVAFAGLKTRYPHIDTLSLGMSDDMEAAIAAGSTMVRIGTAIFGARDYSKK
Test: EMSA
Details: PLP added (holo-form); REMSA with fixed RNA: 10 mM HEPES pH 7.3, 10 mM KCl, 1 mM MgCl2, 1 mM DTT, 5% glycerol, RT 30 min; 5% native PAGE, 0.5x TBE; recombinant protein; protein details: N-terminal 6xHis (pET28); probe letters rebuilt from the primers and the genome

Sequence	binding result
GGGUCGCGUGGAAGCCCUGCCUGGGGUUGAAGCGUUAAAACUUAAUCAGGCUAGUUUGUUAGUGGCGUGUCCGUCCGCAGCUGGCAAGCGAAUGUAAAGACUGACUAAGCAUGUAGUACCGAGG [SsrA RNA fragment (198-318)]	binds more weakly
GGGUGGUAACAGUCCGUGGCACGGUAAACUCCACCCGGAGCAAGGCCAAAUAGGGGUUCAUAAGGUACGGCCCGUACUGAACCCGGGUAGGCUGCUUGAGCCAGUGAGCGAUUGCUGGCCUAGAUGAAUGACUGUCCACGACAGAACCCGG [RnpB RNA fragment (210-357)]	binds more weakly

From PMC11602438
